From PubChem BioAssay AID504834 (National Center for Advancing Translational Sciences (NCATS), 2011)
Out of some 320,000 compounds screened, about 22,000 (6.9%) were called active. Inconclusive means that the source gave no clear call. Such entries were picked first, then a sample of the others. The call rests on the fitted dose curve; in most records, active means well fitted inhibition curve with a large enough effect; inconclusive means small, poorly fitted or top-dose-only effect, or another doubt; inactive means no such curve, though single readings can be large or run the other way. Potencies of inconclusive entries are doubtful fits and often do not repeat.

Assay: Primary qHTS for delayed death inhibitors of the malarial parasite plastid, 96 hour incubation
Settings: P. falciparum luciferase reporter growth; series mostly up to 28.7 µM
Outline: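 Infected RBCs, 2% Hct / 0.05% parasitemia final; luciferase-reporter P. falciparum; cpd 96 h, 37 C, 5% CO2; luciferase detection reagent; luminescence.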
Potency means the concentration at half of the fitted maximal effect.

Row | SMILES | Potency
1 | CCc1ccc(-c2csc(NC(=O)C3=NN(c4ccccc4)C(=O)CC3)n2)cc1 | inconclusive: 10.4 µM [inhibitor, single point]
2 | CCN(CC)S(=O)(=O)c1ccc(N2CCN(C)CC2)c(NC(=O)Nc2ccccc2F)c1 | active: 13.1 µM
3 | CC1(C)O[C@@H]2[C@H](O1)[C@@H](CO)O[C@H]2n1c(N2CCCCC2)nc2c(N)ncnc21 | inactive
4 | O=S(=O)(c1cc(F)ccc1F)N1CCN(c2ncccn2)CC1 | inactive
5 | CC(C)(C)OC(=O)N1CCC(c2c(C(=O)N3CCN(C(=O)c4ccco4)CC3)cnn2-c2ccc(F)cc2F)CC1 | inactive
6 | CCCC1CCC(=NNC(=S)NCCc2ccccc2)CC1 (stereo not drawn) | inconclusive: 0.586 µM [inhibitor, full curve, poor fit]
7 | Cc1nnc(NC(=O)CSCc2c(C)noc2C)s1 | inactive
8 | CC(=O)c1ccc(NC(=O)c2cc(C)no2)cc1 | inactive
9 | CSc1ccc(C(=O)NC2CCSc3ccccc32)cc1 (stereo not drawn) | inconclusive: 6.57 µM [inhibitor, single point]
10 | COC(=O)c1[nH]c2ccccc2c1NC(=O)C(C)N1CC(C)OC(C)C1 (stereo not drawn) | inconclusive: 8.28 µM [inhibitor, single point]
11 | COc1cccc(C(=O)NC2CC3CCC(C2)N3Cc2ccccc2)c1 (stereo not drawn) | inactive
12 | COc1cc2cc(CN(CCO)S(=O)(=O)c3ccccc3Cl)c(=O)[nH]c2cc1OC | inactive
13 | S=C(NC1CCCC1)N1CCN(c2ccccn2)CC1 | active: 2.08 µM
14 | COc1ccc([N+](=O)[O-])cc1NC(=O)CSc1nncn1-c1ccccc1 | inconclusive: 16.5 µM [inhibitor, single point]
15 | Cc1nn(-c2ccccc2)c(N2CCCC2)c1/C=N/Nc1ccc(S(=O)(=O)Nc2ccccc2)cc1[N+](=O)[O-] | inconclusive: 1.85 µM [inhibitor, full curve]
16 | Cc1nc2ccccc2n1CC(=O)c1ccccc1 | inconclusive: 10.4 µM [inhibitor, partial curve]
17 | CC1CCN(C(=O)C2CCC(CNS(=O)(=O)c3cccc4cccnc34)CC2)CC1 (stereo not drawn) | active: 9.28 µM
18 | COc1cc(NC(=O)c2c(Cl)cnn2C)c(OC)cc1Cl | inactive
19 | COC(=O)C(CC(=O)c1ccc(Cl)cc1)c1ccc(C(C)C)cc1 (stereo not drawn) | inconclusive: 2.62 µM [inhibitor, single point]
20 | Cc1c(NC(=O)CN2CCN(c3ccccc3)CC2)c(=O)n(-c2ccccc2)n1C | inactive
21 | C/C(=N\O)C(=O)C(CN1CCCCC1)CN1CCCCC1 | inactive
22 | O=C(NCCCN1CCOCC1)c1cnn2c(-c3ccccc3)cc(-c3ccccc3)nc12 | active: 9.28 µM
23 | CN(C1CCCCC1)S(=O)(=O)c1ccc(C(=O)O)cc1 | active: 11.7 µM
24 | CC(C)Cc1ccc(S(=O)(=O)NCC2CCCO2)cc1 (stereo not drawn) | inactive
25 | C=CCNC(=S)N/N=C/c1ccc(-c2ccc(OC)cc2)o1 | inconclusive: 2.62 µM [inhibitor, full curve, poor fit]

Row | SMILES | Potency
26 | CCOC(=O)N1CCN(C(=O)/C(=C/c2cccs2)NC(=O)c2ccc(OC)c(OC)c2)CC1 | inactive
27 | CCOC(=O)c1c(NC(=O)C2c3ccccc3Oc3ccccc32)sc(C(=O)N(CC)CC)c1C | active: 0.928 µM
28 | COc1ccc([C@@H]2[C@@H]3C(=O)N(C(C)(C)C)C(=O)[C@@H]3[C@]3(C)C(=O)N(c4ccccc4)C(=O)N23)cc1 | inconclusive: 8.28 µM [inhibitor, partial curve, poor fit]
29 | CCCCn1c(NCCN(C)C)nc2c1c(=O)[nH]c(=O)n2C | active: 4.65 µM
30 | Cc1ccc(NC(=O)CCN2CCN(C/C=C/c3ccccc3)CC2)cc1C | inactive
31 | Cc1cccc(-n2ncc3c(Nc4ccc(F)cc4)ncnc32)c1 | inconclusive: 16.5 µM [inhibitor, single point]
32 | O=C(CNC(=O)c1ccncc1)N/N=C/c1ccc(O)cc1O | inconclusive: 18.5 µM [inhibitor, single point]
33 | CCOc1ccccc1C(=O)NC(C(=O)NCc1ccccc1OC)C(C)C (stereo not drawn) | inconclusive: 18.5 µM [inhibitor, single point]
34 | O=C1CCC/C(=N/NC(=O)c2ccc(CN3c4cccc5cccc(c45)S3(=O)=O)cc2)C1 | inconclusive: 11.7 µM [inhibitor, single point]
35 | CCn1c(COc2ccccc2)nnc1SCC(=O)CC(=O)Nc1ccccc1OC | active: 7.38 µM
36 | C/C(CC(=O)N(C(C)C)C(C)C)=N\NC(=O)c1ccccc1Br | inactive
37 | NC(=O)c1ccc(CN2CCC(Cc3ccccc3)CC2)cc1 | inactive
38 | N=C1C(c2nc(-c3ccc(F)cc3)cs2)=C(O)CN1CCCN1CCOCC1 | inconclusive: 0.657 µM [inhibitor, full curve, poor fit]
39 | Cc1ccc(NC(=O)CSc2nc3ccccc3c3nc(CCc4c(C)n[nH]c4C)nn23)cc1F | inconclusive: 18.5 µM [inhibitor, single point]
40 | COc1ccccc1C(=O)N/N=C(\C)CC(=O)Nc1ccccn1 | inconclusive: 11.7 µM [inhibitor, single point]
41 | Cc1ccccc1OCC(O)Cn1c(Br)nc2c1c(=O)n(C)c(=O)n2C (stereo not drawn) | inconclusive: 18.5 µM [inhibitor, single point]
42 | Cc1ccc(C(=O)NCCc2nnc3ccc(SCC(=O)N4CCCC4)nn23)cc1 | inconclusive: 11.7 µM [inhibitor, single point]
43 | O=C1C(=O)c2ccccc2C(O)=C1c1cccc([N+](=O)[O-])c1 | active: 7.38 µM
44 | O=C(CN1C(=O)c2cccc3cccc1c23)NCC1CCCO1 (stereo not drawn) | inactive
45 | CCOc1ccc(/C=C(\C#N)C(=O)Nc2ccccn2)cc1 | inconclusive: 18.5 µM [inhibitor, single point]
46 | CCN1CCN(CCCN(Cc2ccco2)C(=S)Nc2ccc(Cl)c(C)c2)CC1 | inconclusive: 10.4 µM [inhibitor, single point]
47 | COc1cccc(N2CC(C(=O)Nc3nnc(SCC(=O)NCC4CCCO4)s3)CC2=O)c1 (stereo not drawn) | inactive
48 | O=C(O)C1CCN(C(=O)COc2ccc3c4c(c(=O)oc3c2)CCC4)CC1 | inconclusive: 6.57 µM [inhibitor, partial curve]
49 | COc1ccc(NC(=O)CCNC(=O)Cn2ccc3ccccc3c2=O)c(OC)c1 | inconclusive: 18.5 µM [inhibitor, single point]
50 | c1ccc(-c2ncc3ccccn23)cc1 | inconclusive: 0.0041 µM [inhibitor, full curve, poor fit]

Some of the entries so far, as tab-separated lines:
Row	SMILES	Potency
27	CCOC(=O)c1c(NC(=O)C2c3ccccc3Oc3ccccc32)sc(C(=O)N(CC)CC)c1C	active: 0.928 µM
28	COc1ccc([C@@H]2[C@@H]3C(=O)N(C(C)(C)C)C(=O)[C@@H]3[C@]3(C)C(=O)N(c4ccccc4)C(=O)N23)cc1	inconclusive: 8.28 µM [inhibitor, partial curve, poor fit]
31	Cc1cccc(-n2ncc3c(Nc4ccc(F)cc4)ncnc32)c1	inconclusive: 16.5 µM [inhibitor, single point]
32	O=C(CNC(=O)c1ccncc1)N/N=C/c1ccc(O)cc1O	inconclusive: 18.5 µM [inhibitor, single point]
33	CCOc1ccccc1C(=O)NC(C(=O)NCc1ccccc1OC)C(C)C (stereo not drawn)	inconclusive: 18.5 µM [inhibitor, single point]
34	O=C1CCC/C(=N/NC(=O)c2ccc(CN3c4cccc5cccc(c45)S3(=O)=O)cc2)C1	inconclusive: 11.7 µM [inhibitor, single point]
36	C/C(CC(=O)N(C(C)C)C(C)C)=N\NC(=O)c1ccccc1Br	inactive
37	NC(=O)c1ccc(CN2CCC(Cc3ccccc3)CC2)cc1	inactive
40	COc1ccccc1C(=O)N/N=C(\C)CC(=O)Nc1ccccn1	inconclusive: 11.7 µM [inhibitor, single point]
41	Cc1ccccc1OCC(O)Cn1c(Br)nc2c1c(=O)n(C)c(=O)n2C (stereo not drawn)	inconclusive: 18.5 µM [inhibitor, single point]
42	Cc1ccc(C(=O)NCCc2nnc3ccc(SCC(=O)N4CCCC4)nn23)cc1	inconclusive: 11.7 µM [inhibitor, single point]
43	O=C1C(=O)c2ccccc2C(O)=C1c1cccc([N+](=O)[O-])c1	active: 7.38 µM
47	COc1cccc(N2CC(C(=O)Nc3nnc(SCC(=O)NCC4CCCO4)s3)CC2=O)c1 (stereo not drawn)	inactive
48	O=C(O)C1CCN(C(=O)COc2ccc3c4c(c(=O)oc3c2)CCC4)CC1	inconclusive: 6.57 µM [inhibitor, partial curve]
49	COc1ccc(NC(=O)CCNC(=O)Cn2ccc3ccccc3c2=O)c(OC)c1	inconclusive: 18.5 µM [inhibitor, single point]
50	c1ccc(-c2ncc3ccccn23)cc1	inconclusive: 0.0041 µM [inhibitor, full curve, poor fit]

The list continues:

Row | SMILES | Potency
51 | COc1ccc(-n2c(C)nc3c(cnn3-c3ccc(Cl)cc3)c2=O)cc1 | inactive
52 | CCN1CCCC1Cn1cnc2c([nH]c3ccc(OC)cc32)c1=O (stereo not drawn) | inactive
53 | O=C(NCCc1ccccc1Cl)C1CCC(=O)N(CCCc2ccccc2)C1 (stereo not drawn) | inconclusive: 18.5 µM [inhibitor, single point]
54 | CCn1nc(NC(=O)Cc2ccc(OC)cc2)c2cc3cc(C)ccc3nc21 | inactive
55 | N/C(CC(=O)Nc1ccc(F)c(Cl)c1)=N\OC(=O)c1cccs1 | inconclusive: 18.5 µM [inhibitor, single point]
56 | CCOc1ccc(CCNC(=O)CN(C)S(=O)(=O)c2cccs2)cc1OCC | inconclusive: 18.5 µM [inhibitor, single point]
57 | O=C(CCCn1c(SCC(=O)NCC2CCCO2)nc2ccccc2c1=O)NCC1CCCO1 (stereo not drawn) | inconclusive: 1.85 µM [inhibitor, full curve, poor fit]
58 | Cc1ccc(NC(=O)C(=O)NCc2ccc(/C=C(/C#N)C(=O)NCc3cccnc3)o2)cc1 | inconclusive: 1.04 µM [inhibitor, partial curve, poor fit]
59 | Nc1nnnn1/N=C/c1cccc(Oc2ccccc2)c1 | active: 7.38 µM
60 | Cc1ccc2c(c1)C1CN(C)CCC1N2C(=O)c1ccccc1NS(=O)(=O)c1ccc(F)cc1 (stereo not drawn) | inconclusive: 18.5 µM [inhibitor, single point]
61 | COC(=O)N/N=C/c1cn(CCOc2ccccc2)c2ccccc12 | inactive
62 | CCOc1nc(C)ccc1-c1noc(-c2ccccc2OC)n1 | inactive
63 | COCCCN(C(=O)c1ccco1)c1nc(-c2ccc(OC)cc2)cs1 | inconclusive: 0.0033 µM [inhibitor, full curve, poor fit]
64 | CCc1ccc(/C=N/n2c(C3CCCCC3)n[nH]c2=S)cc1 | inconclusive: 18.5 µM [inhibitor, single point]
65 | NS(=O)(=O)c1ccc(NC(=O)COc2ccc(S(=O)(=O)N3CCCC3)cc2)cc1 | inactive
66 | COc1ccc(C2CC(c3ccc(Br)cc3)=NN2C(=O)CSC2=NCCS2)cc1 (stereo not drawn) | active: 4.65 µM
67 | COc1ccc(OC)c(S(N)(=O)=O)c1 | inconclusive: 18.5 µM [inhibitor, single point]
68 | CCOC(=O)N1CCN(c2ccc(F)cc2[N+](=O)[O-])CC1 | inactive
69 | CCN(CC)C(=O)CSc1nc2c(sc(=S)n2CC)c(=O)n1-c1ccccc1 | inconclusive: 9.28 µM [inhibitor, single point]
70 | Cc1ccc(NC(=O)C2CC2C)cc1S(=O)(=O)N1CCOCC1 (stereo not drawn) | inconclusive: 18.5 µM [inhibitor, single point]
71 | Cc1ccc2c(c1)nnn2C1CCN(S(=O)(=O)c2ccc(C(=O)N3CC(C)CC(C)C3)cc2)CC1 (stereo not drawn) | inconclusive: 13.1 µM [inhibitor, single point]
72 | CC(C)CN(C)C(=O)CCc1nnc(Cc2ccc(-c3ccccc3)cc2)o1 | inconclusive: 0.208 µM [inhibitor, full curve, poor fit]
73 | CCCSc1nnc(CNS(=O)(=O)c2ccc(C)cc2)n1C | inactive
